At least one compound was matched to its structure with a doubt left.
Biological target: uPA (Homo sapiens, UniProt P00749)
Experiment: Direct effect on uPA activity (S-2444 assay)
Settings: 317 μM

In the case of `CNC(=O)[C@@H](NC(=O)[C@H](CC(=O)NO)CC(C)C)C(C)(C)C` [Compound 12, (S)—N1-((S)-3,3-dimethyl-1-(methylamino)-1-oxobutan-2-yl)-N4-hydroxy-2-isobutylsuccinamide], the “effect on uPA activity (in words)” value is reported as “no effect on uPA activity”.
